Laboratory results published in PubChem BioAssay AID504444 (National Center for Advancing Translational Sciences (NCATS), 2011).
“And” between values parts separate entries of the source, which are not always exact repeats. Identical values can stand only once. Hit rate of the full screen: of about 360,000 compounds, about 7,500 (2.1%) were called active. This list was built around the results that the source calls inconclusive (neither active nor inactive); the mix of calls is not that of the screen. Calls follow the shape of the dose curve; as a rule, active = well fitted inhibition curve with a large enough effect; inconclusive = small, poorly fitted or top-dose-only effect, or effect the other way; inactive = flat fitted curve, though single readings scatter. A potency beside an inconclusive call is a rough fit, not a confirmed value.

Assay: Nrf2 qHTS screen for inhibitors; also: nearly all actives have a fitted effect of over 60% in size
Conditions: A549 ARE-Fluc reporter, luciferase luminescence, 18-24 h; series mostly up to 46 µM
In short: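 Nrf2 activity is the BugLite luminescence, read 15 min after reagent at room temperature, following CellTiter-Fluor cytotoxicity readout (30 min, 37C). Compound titrations were applied for 18-24 h to 5000 A549 ARE_Fluc cells/well in 5% FBS OPTI-MEM.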
Potency is read from the fitted curve at half-maximal effect.

Structure (SMILES)	Potency
COC(=O)CNC(c1ccccc1)c1cc(Br)ccc1NC(=O)c1cc(OC)c(OC)c(OC)c1 (centres undefined)	inconclusive: 29.1 µM [falling, partial curve, poor fit]
COc1ccc(OC)c(C(=O)N(C[C@H]2CC[C@@H]([C@@H]3CC[C@H](CO)O3)O2)C(C(=O)NC(C)(C)C)c2ccc(-c3ccccc3)cc2)c1 (some centres undefined)	active: 25.9 µM
CC1=C(c2ccc(Cl)cc2)S(=O)(=O)N=C1N1CCN(c2cccc(C)c2)C(C)C1 (centres undefined)	active: 23.1 µM
COc1cccc(NC(=O)CN(C)C(=O)c2ccc3c(c2)CC(c2ccccc2)OC3=O)c1 (centres undefined)	inconclusive: 23.1 µM [falling, partial curve, poor fit]
COc1ccc(C(=O)NCCc2nnc(SCC(=O)Nc3ccccc3F)n2C)cc1	inconclusive: 5.17 µM [activator, full curve]
O=C(/C=C/c1ccc2ccccc2c1)c1ccoc1	inconclusive: 13 µM [activator, partial curve, poor fit]
Cc1ccc(C)n1-c1nccc(-c2cccs2)n1	inconclusive: 18.4 µM [activator, partial curve, poor fit]
CNC(=O)c1ccc(NC(=O)c2nsc3ccccc23)cc1	inconclusive: 0.461 µM [activator, full curve, poor fit]
Cc1ccc(-c2csc(=Nc3ccccc3)n2CCCO)cc1	inconclusive: 18.4 µM [falling, single point]
CCOC(=O)c1ccc(NC(=O)Cn2nnc(-c3ccc(C(F)(F)F)cc3)n2)cc1	inactive
O=C1CCCN1c1ccc(S(=O)(=O)NCCOc2ccccc2)cc1	active: 12.6 µM
CCn1c(SCC(=O)c2cccs2)nnc1-c1cccs1	inconclusive: 5.8 µM [activator, full curve]
O=[N+]([O-])c1cccc(-c2nc(-c3cccs3)c(-c3cccs3)[nH]2)c1	inconclusive: 16.4 µM [falling, single point]
COc1cccc(OC)c1C(=O)Nn1c(-c2cccc(C)c2)nc2ccccc2c1=O	inconclusive: 25.9 µM [falling, partial curve, poor fit]
O=S(=O)(c1ccc(F)c(Cl)c1)N1CCN(C/C=C/c2ccccc2)CC1	inactive
C=CCc1ccccc1OCC(O)CN1CCN(c2ccc(OC)cc2)CC1 (centres undefined)	inactive
Cc1ccc(NC(=O)N2CCCc3ccccc32)cc1C	inconclusive: 10.3 µM [activator, partial curve]
CN(CC(=O)Nc1ccccc1Br)C(=O)COc1ccc2ccccc2c1	inconclusive: 29.1 µM [falling, single point]
CCOc1cc(C(=O)Nc2cc(C)ccn2)cc(OCC)c1OCC	inactive
Nc1cc(OC(=O)c2cccs2)nn1S(=O)(=O)c1ccc(F)cc1	inactive
C/C(=N\Nc1ccc(Cl)c(C(=O)O)c1)c1ccccn1	inconclusive: 13 µM [activator, partial curve, poor fit]
O=C(CNc1cccc(S(=O)(=O)N2CCCCC2)c1)Nc1cccc(F)c1	inconclusive: 29.1 µM [falling, single point]

Structure (SMILES)	Potency
O=C(Cn1cnc2c(NCc3ccccc3)ncnc21)NCc1ccc2c(c1)OCO2	inconclusive: 1.84 µM [falling, partial curve, poor fit]
CCS(=O)(=O)c1ncc(Cl)c(C(=O)N(Cc2ccccc2)Cc2ccco2)n1	active: 23.1 µM
CCn1cc(C(=O)NCCc2ccc(OC)c(OC)c2)c(=O)c2cc(S(=O)(=O)N3CCc4ccccc4C3)ccc21	inconclusive: 14.6 µM [activator, partial curve, poor fit]
CC(=O)c1cc(-c2ccccc2)n(CC(=O)N2CCC(N3CCCCC3)CC2)c1C	inconclusive: 3.66 µM [activator, full curve, poor fit]
O=C(CNC(=O)c1cccs1)OCc1ccc(Br)cc1	inactive
CCCC(NC(=O)CCc1c(C)c2cc3c4c(oc3c(C)c2oc1=O)CCCC4)C(=O)O (centres undefined)	inconclusive: 29.1 µM [falling, single point]
c1ccc(-c2nc3ccccc3s2)nc1	inconclusive: 18.4 µM [activator, partial curve] and inconclusive: 4.11 µM [activator, full curve]
CSc1ccc(S(=O)(=O)N2CCC(C(=O)Nc3cccnc3)CC2)cc1	inconclusive: 23.1 µM [falling, single point]
Cc1cc(F)ccc1NC(=O)CCc1c(C)nn(-c2ccc(N3CCCCC3)nn2)c1C	inconclusive: 29.1 µM [falling, single point]
CCCN1C2=NCCCN2c2ccccc21	inconclusive: 16.4 µM [activator, partial curve, poor fit]
Cc1ccc(N2CCN(C(=O)CCc3c(C)nc4ncnn4c3C)CC2)c(C)c1	active: 18.4 µM
COC(=O)C(=C/C(C)=C/c1cccnc1)C(=O)OC	inconclusive: 29.1 µM [activator, single point]
Fc1ccc(C2c3[nH]c4ccccc4c3CCN2Cc2cccn2-c2ncccn2)cc1 (centres undefined)	inconclusive: 20.6 µM [activator, partial curve]
O=C(N/N=C/c1ccncc1)c1cc([N+](=O)[O-])cc([N+](=O)[O-])c1O	inactive
CCc1ncc(/C=C2\C(=O)Nc3ccccc32)[nH]1	inconclusive: 6.51 µM [falling, single point]
Cc1ccc(CNc2ncnc3c2cnn3C2CCCCO2)cc1 (centres undefined)	inconclusive: 25.9 µM [falling, partial curve, poor fit]
CC(C)S(=O)(=O)c1csc(NC(=O)Nc2cccc([N+](=O)[O-])c2)c1Cl	inconclusive: 29.1 µM [falling, single point]
COc1ccccc1C1CCN(c2ccc([N+](=O)[O-])cn2)CC1	inconclusive: 16.4 µM [falling, partial curve]
CCOc1ccc(N2C(=O)Nc3ccccc3C2(O)C(=O)N2CCN(c3ccccn3)CC2)cc1 (centres undefined)	inconclusive: 25.9 µM [activator, single point]
COc1cccc(CSc2nnc(CSc3nc4nc(C)cc(C)n4n3)s2)c1	inconclusive: 23.1 µM [falling, partial curve, poor fit]
Cc1ccc(C)c(OCCC(=O)Nc2cccc(S(=O)(=O)N3CCCC3)c2)c1	inconclusive: 18.4 µM [falling, single point]
CC(C)Nc1cc(C(C)(C)C)nc2c(-c3ccccc3)cnn12	inconclusive: 13 µM [activator, partial curve]

Structure (SMILES)	Potency
CCOc1ccc(N/C(C)=C\C(=O)c2ccc3c(c2)OCCO3)cc1	inconclusive: 25.9 µM [activator, partial curve, poor fit]
COc1ccccc1N1CCN(C(=O)C(NS(=O)(=O)c2cccs2)c2ccccc2)CC1 (centres undefined)	inactive
Cc1ccc(S(=O)(=O)c2cn(C)c3cc(N4CCCC4)c(F)cc3c2=O)c(C)c1	inconclusive: 29.1 µM [falling, single point]
CCOC(=O)Nc1cccc(OCC(=O)Nc2ccccc2OC)c1	inconclusive: 18.4 µM [falling, single point]
CCOc1cc(C(=O)Nc2c(NC)c3ccccc3oc2=O)cc(OCC)c1OCC	inactive
CCc1ccc(NC(=O)c2cnn(-c3c(C)cccc3C)c2C2CCNCC2)cc1	inconclusive: 29.1 µM [activator, single point]
Cc1cccc2nc(CSc3ccccc3N)cn12	inconclusive: 6.51 µM [activator, full curve]
Cc1ccc(-n2c(SCC(=O)Nc3cc(C)on3)nc3c(c2=O)SC(C)C3)cc1 (centres undefined)	inconclusive: 7.31 µM [falling, single point]
CCn1c(C)cc(/C=C2/SC(=S)N(CC(=O)O)C2=O)c1C	inconclusive: 14.6 µM [falling, partial curve]
COc1ccc(CN2CCNC(=O)C2CC(=O)NCc2cc(C)n(C)n2)c(F)c1 (centres undefined)	inactive
CCCc1cc(C(=O)Nc2ccc(C(=O)c3ccc(F)cc3)cc2)n(C)n1	inconclusive: 0.58 µM [falling, partial curve, poor fit]
CCOc1cccc(-c2cc(-c3n[nH]c(=S)n3CC)c3ccccc3n2)c1	inconclusive: 32.6 µM [falling, single point]
O=C(COc1ccc(Cl)cc1Br)N1CCN(S(=O)(=O)c2ccccc2)CC1	inconclusive: 23.1 µM [falling, single point]
CC(C)c1ccc(NC(=O)C2CCCN(S(=O)(=O)c3cccnc3)C2)cc1 (centres undefined)	inconclusive: 16.4 µM [falling, single point]
COc1ccc(NC(=O)CSc2nc3c(c(=O)[nH]2)CN(Cc2ccccc2)CC3)cc1Cl	inconclusive: 29.1 µM [falling, single point]
CCc1ccc(NC(=O)Cn2c(=O)n(Cc3ccccc3)c(=O)c3oc4ccccc4c32)cc1	inactive
CCOC(=O)CNC(=O)c1ccc(C#CC2(O)CCCCC2)cc1	inconclusive: 29.1 µM [activator, single point]
COc1cc(NC(=O)C2CC(c3cccc(Br)c3)=NO2)cc(OC)c1OC (centres undefined)	inconclusive: 20.6 µM [falling, single point]
C/C(=N/NC(=O)c1cccs1)c1c(C)[nH]n(-c2nc3ccccc3s2)c1=O	inconclusive: 13 µM [falling, partial curve, poor fit]
O=C(COc1ccc(CO)cc1)Nc1ccc(F)cc1	inconclusive: 6.51 µM [activator, full curve]
